PubChem BioAssay AID493014 (National Center for Advancing Translational Sciences (NCATS), 2011)
The whole screen tested about 340,000 compounds, of which about 170 (0.05%) were called active. Inconclusive results, whose numbers are uncertain, are shown with a selection of clear calls. The call rests on the fitted dose curve; in most records, active means well fitted inhibition curve with a large enough effect in the signal ratio, with a control signal flat (not every such curve was filed as active); inconclusive means small, poorly fitted or top-dose-only effect, or effect the other way, or a change in a side signal; inactive means flat fitted curve, though single readings scatter; the % refers to the signal ratio. Potencies of inconclusive entries are doubtful fits and often do not repeat.

Assay: qHTS Assay to Find Inhibitors of Chronic Active B-Cell Receptor Signaling;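 on activity change, negative = inhibition: plate controls were basal doxycycline-induced cells for no effect and cells given 10 µM MG132 for full effect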
Conditions: ABC-DLBCL IkBa-CBG/CBR reporter, luminescence ratio (green luciferase fused to IkBa over red control in TMD8 lymphoma cells), 4 h; activity change, negative = inhibition: at 46.1 µM (top of the series)
In short: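 TMD8 human ABC-DLBCL cells with doxycycline-inducible IκBα–green luciferase fusion and unfused red luciferase, in 0.5% FBS medium; compounds up to 46 uM, 4 h at 37C. Green/red luminescence ratio, filter-overlap corrected, fitted to concentration-response curves.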
Potency means the concentration at half of the fitted maximal effect.

Row | Structure (SMILES) | activity change, negative = inhibition | Potency
1 | CC(=O)Nc1ccc(S(=O)(=O)NC2=C(N3CCN(c4ccc(F)cc4)CC3)C(=O)c3ccccc3C2=O)cc1 | inactive | 
2 | COc1ccccc1NC(=O)CN1CCN(c2ccccn2)CC1 |  | inconclusive: 32.6 µM [falling, partial curve, poor fit]
3 | Cc1ccc(NC(=O)C2=C(O)c3sccc3N(C)S2(=O)=O)cc1 |  | inconclusive: 5.17 µM [falling, partial curve, poor fit]
4 | COC(=O)N1CCc2c(sc(NC(=O)C3=COCCO3)c2C#N)C1 | inactive | 
5 | O=C(O)CCCC(=O)Nc1ccccc1SCCS(=O)(=O)c1ccc(Cl)cc1 | inconclusive: -2.07% | 
6 | CCOC(=O)C1CCN(S(=O)(=O)c2ccc(CC)cc2)CC1 | inactive | 
7 | COc1ccc(C(=O)Nc2ccccc2C(=O)Nc2cc(C)ccn2)cc1 | inconclusive: -11.5% | 
8 | O=C(C1CCCCC1)N1CCN(c2ncccn2)CC1 | inconclusive: 14.6% | 
9 | CCN(Cc1cnn(C)c1)C(=O)c1ccc(OC2CCN(S(=O)(=O)N(C)C)CC2)cc1 |  | inconclusive: 11.2 µM [falling, partial curve, poor fit]
10 | N#Cc1ccc(C(=O)NC(=S)N2CCN(C=O)CC2)cc1 | inactive | 
11 | C/C(=N/NC(=O)c1ccccn1)c1ccncc1 |  | inconclusive: 15.8 µM [falling, single point]
12 | Cc1cc(C)cc(NC(=O)c2ccc(CSc3nnnn3C)cc2)c1 | inconclusive: 0.447% | 
13 | Cc1nnsc1C(=O)NNC(=O)Nc1ccccc1 |  | inconclusive: 15.8 µM [falling, single point]
14 | Cc1ccc(C2=NN(C(=O)CN3CCN(C4CCS(=O)(=O)C4)CC3)C(c3ccco3)C2)cc1 (stereo not given) |  | inconclusive: 29.1 µM [falling, single point]
15 | COc1cccc(C(=O)NC(=S)Nc2ccc3[nH]c(=O)[nH]c3c2)c1 |  | inconclusive: 3.16 µM [falling, partial curve, poor fit]
16 | Cc1cccc(OCC(O)CN2C(C)(C)CC(O)CC2(C)C)c1C (stereo not given) | inconclusive: 4.44% | 
17 | Cc1ccc(CNc2nc3ccc(C)cc3n3cnnc23)cc1 |  | inconclusive: 0.82 µM [rising, full curve]
18 | c1ccc(N2CCN(c3ncnc4c3oc3ccccc34)CC2)cc1 | inactive | 
19 | CC[C@]12c3[nH]c4ccc(Cl)cc4c3CCN1C(=O)[C@@H](CC(=O)NCc1ccc(OC)c(OC)c1)C[C@@H]2C(=O)N1CCN(C(=O)C2CC2)CC1 | inactive | 
20 | Nc1nc(SCc2ccc(F)cc2)ns1 | inconclusive: -7.47% | 
21 | CCOc1ccccc1N(CC(=O)Nc1cccnc1)S(C)(=O)=O | inconclusive: 13.4% | 
22 | CCOc1ccccc1NC(=O)COC(=O)C12CC3CC(CC(O)(C3)C1)C2 | inactive | 
23 | CCC(C)NC(=O)c1c(N)n(/N=C/c2cccnc2)c2nc3ccccc3nc12 (stereo not given) | inconclusive: -0.0494% | 
24 | O=C(Nc1ccc2c(c1)CCC2)c1ccccc1F |  | inconclusive: 20.6 µM [falling, single point]
25 | CCC1Oc2ccc(C)cc2N(CC(=O)NCCc2ccccc2)C1=O (stereo not given) | inactive | 

Row | Structure (SMILES) | activity change, negative = inhibition | Potency
26 | O=C(COC(=O)/C=C/c1ccc(Cl)cc1Cl)NCCC1=CCCCC1 | inactive | 
27 | Cc1ccc(CNC(=S)Nc2ccc(C)c([N+](=O)[O-])c2)cc1 | inactive | 
28 | COc1ccc(Br)cc1CN(C)CC(=O)Nc1cccc(S(N)(=O)=O)c1 | inconclusive: -0.42% | 
29 | COc1cccc(CNC(=O)CCCc2c[nH]c3ccccc23)c1 |  | inconclusive: 17.8 µM [falling, partial curve, poor fit]
30 | COc1ccc(-c2nsc(SCC(=O)Nc3cc(C)on3)n2)cc1 | inconclusive: -7.29% | 
31 | CCC(CO)Oc1cc(NCc2cccc(F)c2)c2ncn(C(C)C)c2c1 (stereo not given) | inconclusive: 1.48% | 
32 | N#Cc1cc2ccccc2nc1N | inconclusive: 13% | 
33 | Cc1cc(C)c(O)c(-c2n[nH]c3c2C(c2cccc(O)c2)N(Cc2ccco2)C3=O)c1 (stereo not given) | inconclusive: 17.8% | 
34 | COc1cccc(/C=C2\Oc3cc(OC(=O)N4CCOCC4)ccc3C2=O)c1 | inactive | 
35 | O=C(Nc1cccnc1)c1ccc([N+](=O)[O-])o1 |  | inconclusive: 31.6 µM [falling, partial curve, poor fit]
36 | Cc1ccc(S(=O)(=O)N(C)C)cc1NC(=O)CSc1ncc(C(F)(F)F)cc1Cl |  | inconclusive: 20.6 µM [falling, partial curve, poor fit]
37 | COc1c(Br)cc(C(N)=O)cc1OCc1ccccc1 | inconclusive: 4.76% | 
38 | Cc1cc(=O)n(-c2ccc3ccccc3n2)[nH]1 |  | inconclusive: 29.1 µM [falling, single point]
39 | CCOc1ccc(S(=O)(=O)Nc2cccc(C(=O)NCC(c3ccccc3)N(C)C)c2)cc1 (stereo not given) | inactive | 
40 | O=C(CCCCCn1c(=O)[nH]c2ccsc2c1=O)NCc1ccc(F)cc1 | inconclusive: 2.47% | 
41 | COc1ccc(C2/C=C\CN(C(=O)Nc3ccc(C(F)(F)F)cc3)CC(=O)N2Cc2ccc(F)cc2)cc1 (stereo not given) | inconclusive: 19.4% | 
42 | C/C(N)=C(/C#N)C(=O)COC(=O)c1cc(-c2cccc(Br)c2)nc2ccccc12 | inconclusive: 13.6% | 
43 | O=C(COC(=O)CCc1nc2ccccc2c(=O)[nH]1)Nc1ccc(OC(F)(F)F)cc1 | inconclusive: 2.08% | 
44 | Cc1cnc(C(=O)N2CCCC(C(=O)c3ccc(C(F)(F)F)cc3)C2)cn1 (stereo not given) | inconclusive: -6.06% | 
45 | Cc1nnc(-c2cnn(C)c2N)n1CCCN(C)C | inconclusive: 1.36% | 
46 | O=C(Nc1ccccc1)C1=C[C@H](c2coc3ccccc3c2=O)C[C@H](OCc2ccc(CO)cc2)O1 | inconclusive: 5.79% | 
47 | O=C(Cc1ccccc1)Nc1cccc(N2CCCC2)c1 | inconclusive: -3.01% | 
48 | O=C(NCc1ccccc1)c1c[nH]c2cc3c(cc2c1=O)OCCO3 | inconclusive: 10.4% | 
49 | CC/C(=N\NC(=O)c1ccncc1)C12CC3CC(CC(C3)C1)C2 |  | inconclusive: 29.1 µM [falling, partial curve, poor fit]
50 | COc1ccc(CCC(=O)NC2CCC(C)CC2)cc1 (stereo not given) |  | inconclusive: 17.8 µM [falling, single point]

Structures from the list above that contain a cyano group:
Row | Structure (SMILES) | activity change, negative = inhibition | Potency
4 | COC(=O)N1CCc2c(sc(NC(=O)C3=COCCO3)c2C#N)C1 | inactive | 
10 | N#Cc1ccc(C(=O)NC(=S)N2CCN(C=O)CC2)cc1 | inactive | 
32 | N#Cc1cc2ccccc2nc1N | inconclusive: 13% | 
42 | C/C(N)=C(/C#N)C(=O)COC(=O)c1cc(-c2cccc(Br)c2)nc2ccccc12 | inconclusive: 13.6% | 
